According to paper PMC5324308:
These are yes or no findings as the source states them, for the method shown. In cells and extracts the contact can be indirect. Some results given as binding are weak or reduced against the parent protein; the word gives no strength.

Sequences of proteins named here, by UniProt entry; tags and fusion partners are left off.
UniProt Q61686: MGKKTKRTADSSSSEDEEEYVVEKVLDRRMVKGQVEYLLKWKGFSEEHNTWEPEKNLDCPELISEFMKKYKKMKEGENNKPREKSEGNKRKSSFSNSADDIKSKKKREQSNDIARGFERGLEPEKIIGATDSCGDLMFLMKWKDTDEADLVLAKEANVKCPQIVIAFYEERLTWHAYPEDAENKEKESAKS
UniProt Q9Z148: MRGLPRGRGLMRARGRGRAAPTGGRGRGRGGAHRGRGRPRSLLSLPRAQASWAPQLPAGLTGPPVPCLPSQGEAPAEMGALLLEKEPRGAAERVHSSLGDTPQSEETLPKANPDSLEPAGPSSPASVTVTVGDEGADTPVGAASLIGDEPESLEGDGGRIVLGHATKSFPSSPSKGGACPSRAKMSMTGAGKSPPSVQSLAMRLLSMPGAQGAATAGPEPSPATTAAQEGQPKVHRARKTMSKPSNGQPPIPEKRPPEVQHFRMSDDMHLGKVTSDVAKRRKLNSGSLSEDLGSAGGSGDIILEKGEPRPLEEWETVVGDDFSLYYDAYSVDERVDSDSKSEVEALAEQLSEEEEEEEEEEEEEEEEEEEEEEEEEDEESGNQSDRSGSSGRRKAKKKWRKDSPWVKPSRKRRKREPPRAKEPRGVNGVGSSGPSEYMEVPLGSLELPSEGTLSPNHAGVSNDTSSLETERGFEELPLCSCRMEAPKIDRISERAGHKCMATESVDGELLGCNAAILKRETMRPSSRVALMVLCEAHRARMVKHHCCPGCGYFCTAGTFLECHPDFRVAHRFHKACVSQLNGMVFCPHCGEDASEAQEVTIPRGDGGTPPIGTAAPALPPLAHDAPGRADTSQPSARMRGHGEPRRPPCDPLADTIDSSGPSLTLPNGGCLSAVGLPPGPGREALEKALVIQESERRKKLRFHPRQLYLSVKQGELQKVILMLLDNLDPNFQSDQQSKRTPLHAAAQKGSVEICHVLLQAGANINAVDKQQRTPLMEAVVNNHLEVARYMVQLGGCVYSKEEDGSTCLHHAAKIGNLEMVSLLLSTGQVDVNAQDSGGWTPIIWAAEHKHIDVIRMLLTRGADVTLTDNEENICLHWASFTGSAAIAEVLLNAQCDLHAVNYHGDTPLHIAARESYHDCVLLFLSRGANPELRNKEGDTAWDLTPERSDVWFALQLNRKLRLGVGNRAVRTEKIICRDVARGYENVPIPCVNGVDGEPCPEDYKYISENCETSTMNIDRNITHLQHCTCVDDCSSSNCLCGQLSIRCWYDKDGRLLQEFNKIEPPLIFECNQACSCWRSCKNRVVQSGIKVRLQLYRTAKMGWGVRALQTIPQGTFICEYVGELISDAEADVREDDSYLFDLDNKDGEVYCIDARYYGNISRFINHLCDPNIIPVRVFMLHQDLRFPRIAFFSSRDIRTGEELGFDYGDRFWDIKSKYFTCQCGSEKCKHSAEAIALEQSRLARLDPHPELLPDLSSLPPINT

Molecular target: T1, FLBIO-SMYD5 (biotinylated SMYD5 + BirA) (mouse) (UniProt Q3TYX3)
T1 sequence (chain, biotin (biotinylated in cells by BirA)): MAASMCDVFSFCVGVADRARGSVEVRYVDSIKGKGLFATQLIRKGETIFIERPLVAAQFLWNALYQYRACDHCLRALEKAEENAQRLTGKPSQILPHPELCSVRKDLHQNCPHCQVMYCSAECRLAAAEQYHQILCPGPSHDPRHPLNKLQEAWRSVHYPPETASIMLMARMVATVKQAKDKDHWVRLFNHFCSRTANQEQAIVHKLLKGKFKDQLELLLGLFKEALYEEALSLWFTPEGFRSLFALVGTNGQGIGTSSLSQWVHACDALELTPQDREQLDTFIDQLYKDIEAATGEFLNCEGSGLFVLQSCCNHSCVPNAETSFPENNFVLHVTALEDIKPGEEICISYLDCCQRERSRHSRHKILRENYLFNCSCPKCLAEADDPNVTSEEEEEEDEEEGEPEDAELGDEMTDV
Test: co-IP; FLBIO-SMYD5 (biotinylated SMYD5 + BirA) ES cells or BirA (control) ES cells; SMYD5 precipitated with avidin-agarose beads; immunoblotting with anti-HP1α, anti-G9a and anti-SMYD5 antibodies

Substance: HP1α (from UniProt Q61686 1-191)
- binding: binds

Substance: G9a (from UniProt Q9Z148 1-1263) (enzyme)
- binding: binds
